Results are given in words; binding and its absence hold for the method and conditions named. In cells and extracts the contact can be indirect. These calls come from enrichment with a bait or labelling near it, and not all partners need be listed.
Target: HDAC6 overexpressed in HCT116 cells (bait of the mass spectrometry) (UniProt Q9UBN7)
Assay: affinity purification with mass spectrometry; HCT116 cells overexpressing HDAC6 against a control group; proteins that interact with HDAC6 detected by protein mass spectrometry

Chains of the proteins cited; added tags and fusions are not shown.
UniProt Q9UBN7: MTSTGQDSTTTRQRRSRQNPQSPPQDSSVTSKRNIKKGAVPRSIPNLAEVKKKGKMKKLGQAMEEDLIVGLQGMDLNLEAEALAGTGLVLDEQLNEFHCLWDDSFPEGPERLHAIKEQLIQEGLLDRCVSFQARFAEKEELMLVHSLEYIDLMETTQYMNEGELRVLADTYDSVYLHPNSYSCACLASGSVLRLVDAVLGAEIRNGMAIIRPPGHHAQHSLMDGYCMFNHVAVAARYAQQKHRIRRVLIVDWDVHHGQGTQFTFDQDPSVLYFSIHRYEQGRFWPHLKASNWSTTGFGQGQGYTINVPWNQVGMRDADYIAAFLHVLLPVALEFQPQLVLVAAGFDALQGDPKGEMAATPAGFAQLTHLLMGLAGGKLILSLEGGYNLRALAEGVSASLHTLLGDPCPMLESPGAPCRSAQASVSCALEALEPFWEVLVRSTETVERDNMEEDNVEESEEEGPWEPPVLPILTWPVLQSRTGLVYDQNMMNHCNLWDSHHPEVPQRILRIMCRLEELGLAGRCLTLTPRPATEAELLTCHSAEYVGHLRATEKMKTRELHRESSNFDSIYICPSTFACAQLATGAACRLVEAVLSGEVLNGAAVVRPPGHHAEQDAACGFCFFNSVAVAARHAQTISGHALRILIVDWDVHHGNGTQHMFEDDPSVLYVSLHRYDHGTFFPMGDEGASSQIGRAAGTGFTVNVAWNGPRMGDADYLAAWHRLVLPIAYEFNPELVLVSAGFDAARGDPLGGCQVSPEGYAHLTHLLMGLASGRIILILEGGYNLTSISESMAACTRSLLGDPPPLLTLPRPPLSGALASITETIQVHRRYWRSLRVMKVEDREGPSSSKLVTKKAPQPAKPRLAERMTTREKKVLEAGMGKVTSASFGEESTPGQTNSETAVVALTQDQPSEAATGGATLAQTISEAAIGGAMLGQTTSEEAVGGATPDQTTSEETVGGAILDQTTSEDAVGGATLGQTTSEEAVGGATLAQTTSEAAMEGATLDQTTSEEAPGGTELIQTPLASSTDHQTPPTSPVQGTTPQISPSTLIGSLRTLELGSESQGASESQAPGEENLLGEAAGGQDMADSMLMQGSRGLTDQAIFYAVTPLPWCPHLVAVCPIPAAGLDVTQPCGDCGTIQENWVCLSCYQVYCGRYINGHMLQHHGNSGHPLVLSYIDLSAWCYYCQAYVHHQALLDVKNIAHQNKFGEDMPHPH

B1: TAK1, endogenous in HCT116 cells (enzyme, UniProt O43318 1-606)
chain: MSTASAASSSSSSSAGEMIEAPSQVLNFEEIDYKEIEVEEVVGRGAFGVVCKAKWRAKDVAIKQIESESERKAFIVELRQLSRVNHPNIVKLYGACLNPVCLVMEYAEGGSLYNVLHGAEPLPYYTAAHAMSWCLQCSQGVAYLHSMQPKALIHRDLKPPNLLLVAGGTVLKICDFGTACDIQTHMTNNKGSAAWMAPEVFEGSNYSEKCDVFSWGIILWEVITRRKPFDEIGGPAFRIMWAVHNGTRPPLIKNLPKPIESLMTRCWSKDPSQRPSMEEIVKIMTHLMRYFPGADEPLQYPCQYSDEGQSNSATSTGSFMDIASTNTSNKSDTNMEQVPATNDTIKRLESKLLKNQAKQQSESGRLSLGASRGSSVESLPPTSEGKRMSADMSEIEARIAATTAYSKPKRGHRKTASFGNILDVPEIVISGNGQPRRRSIQDLTVTGTEPGQVSSRSSSPSVRMITTSGPTSEKPTRSHPWTPDDSTDTNGSDNSIPMAYLTLDHQLQPLAPCPNSKESMAVFEQHCKMAQEYMKVQTEIALLLQRKQELVAELDQDEKDQQNTSRLVQEHKKLLDENKSLSTYYQQCKKQLEVIRSQQQKRQGTS
- binding: binds

Reference: article PMC9587286
